# According to patent US20260365855A1, “TARGETED QUINOCYANINE DYES FOR THE INTRAOPERATIVE DELINEATION OF CANCER MARGINS” (THE TRUSTEES OF THE UNIVERSITY OF PENNSYLVANIA, priority 2022, published 2026):
# Assay: Depth penetration comparisons of compound 1 vs. JAS239 and ICG through chicken breast tissue
# Conditions: chicken breast tissue 1-3 mm
# Description: Depth Penetration Comparisons of Compound 1 vs. JAS239 and ICG.
# Compound 1, JAS239, and ICG were diluted in DMSO and placed in a 96-well black-well clear-bottom plate at concentrations from 0.1 μM to 100 μM. The plate was then imaged using the PhotonEtc IR Vivo using the NIR-II emission filter with excitation at 760, 808, 890, or 940 nm. Wells were then covered with thinly sliced raw chicken breast tissue from 1 mm to 3 mm thick. Imaging was then repeated for each tissue thickness.
# Chicken breast tissue was layered over wells containing varying concentrations of each fluorophore in 1 mm sections. Fluorescence in the NIR-II window was measured following excitation at 760, 808, 890, and 940 nm. […] Tissue scattering, absorption, and autofluorescence decreases at increasing wavelengths of light. Thus, the improved resolution of compound 1 with increasing wavelength of excitation laser likely resulted from improved tissue penetration of the excitation laser. Compound 1 has a maximum absorption at 970 nm resulting in strong excitation of the probe and fluorescence conversion.
smiles,measurement,value
"CCN1C=C/C(=C/C=C2\CCCC(/C=C/c3cc[n+](CC)c4ccccc34)=C2Cl)c2ccccc21.[I-] [compound 1, 4-((E)-2((E)-2-chloro-3-(2-((Z)-J-ethylquinolin-4(JH)-ylidene)-ethylidene)cyclohex-1-en-1-yl)vinyl)-J-ethylquinolin-1-ium iodide]",tissue depth up to which strong emission / resolvable signal is observed,up to 3 mm
